Laboratory results reported in PubChem BioAssay.
Several values for one entry are separate records, joined by “and”; a condition that tells them apart may be missing. Identical values can stand only once. The list shows a part of the results. Further columns of the screen follow, without active or inactive calls. For part of these data: The list favours compounds with an active or inconclusive main result.

Legend:
[1] = PubChem AID 1586; settings: yeast two-hybrid polyglutamine protein interaction, reporter readout; measured here: averaged growth delta OD
[2] = selective SMN2 exon splicing luciferase activators – cell-based, SMN2/SMN1 luciferase reporters (AID 1598); settings: SMN2 vs SMN1 luciferase splicing reporter cells, at 10 µM; SMN1 luciferase ratio: measured here: SMN1 luciferase reporter average; SMN2 luciferase ratio: measured here: SMN2 luciferase reporter average, stronger effect = higher value
[3] = rescue of PC12 cells from polyQ htt toxicity – LDH release (AID 1610); settings: PC12 mutant huntingtin toxicity, final LDH at 4 uM, stronger effect = lower value

| Compound | signal change (36 h minus 0 h) [1] | SMN1 luciferase ratio [2] | SMN2 luciferase ratio [2] | normalised LDH release [3] |
| --- | --- | --- | --- | --- |
| C[n+]1c2cc(N)ccc2cc2ccc(N)cc21 | 0.0698 | 0.29 | 0.33 | 0.67 |
| CC12CCC(CC1)C(C)(C)O2 | 0.119 | 0.99 | 0.86 | 0.533 |
| CON | 0.0657 | 0.88 | 0.89 | 1.02 |
| CN1C(=O)CC[C@H]1c1cccnc1 | 0.626 | 0.95 | 1.05 | 0.462 |
| CCN(CCCc1ccccc1)CCCc1ccccc1 (tested in a mixture with another compound) | 0.113 | 0.88 | 0.87 | 0.573 |
| CC(=O)CCCCn1c(=O)c2c(ncn2C)n(C)c1=O | 0.0945 | 0.86 | 0.94 | 1.09 |
| C[N+](C)(C)CCO | 0.0853 | 0.86 | 0.93 | 0.795 |
| CC1CCCC(C)N1NC(=O)c1ccc(Cl)c(S(N)(=O)=O)c1 (centres undefined) | 0.0762 | 0.93 | 0.96 | 1.01 |
| CC(C)(C)NCC(O)COc1cccc2c1C[C@H](O)[C@H](O)C2 (some centres undefined) | 0.156 | 0.93 | 0.94 | 1.03 |
| COc1c2occc2cc2ccc(=O)oc12 | 0.0927 | 0.85 | 0.96 | 0.914 |
| CCOC(N)=O | 0.164 | 0.87 | 0.93 | 0.822 |
| Cc1ccc(S(=O)(=O)NC(=O)NN2CCCCCC2)cc1 | 0.216 | 0.88 | 0.92 | 1.49 |
| CN(C)CCCN1c2ccccc2CCc2ccccc21 | 0.184 | 0.9 | 0.83 | 0.742 |
| Cc1cc(C(C)(C)C)c(O)c(C)c1CC1=NCCN1 | 0.118 | 0.88 | 0.99 | 0.955 |
| CCCNC(=O)NS(=O)(=O)c1ccc(Cl)cc1 | 0.15 | 0.83 | 0.87 | 0.844 |
| CC1(C)S[C@@H]2C(N3C(=O)[C@@H](c4ccccc4)NC3(C)C)C(=O)N2[C@H]1C(=O)O (some centres undefined) | 0.125 | 0.86 | 0.77 | 0.496 |
| CCc1nc(N)nc(N)c1-c1ccc(Cl)cc1 | 0.106 | 0.53 | 0.43 | 0.95 |
| CCCCOc1ccc(C(=O)CCN2CCCCC2)cc1 | 0.189 | 0.93 | 0.86 | 1.24 |

| Compound | signal change (36 h minus 0 h) [1] | SMN1 luciferase ratio [2] | SMN2 luciferase ratio [2] | normalised LDH release [3] |
| --- | --- | --- | --- | --- |
| NCCSSCCN | 0.0756 | 0.91 | 0.8 | 0.797 |
| O=C1C(CCS(=O)c2ccccc2)C(=O)N(c2ccccc2)N1c1ccccc1 (centres undefined) | 0.163 | 0.87 | 0.95 | 0.711 |
| CC[C@@H](C(=O)[C@@H](C)[C@@H](O)[C@H](C)[C@@H]1O[C@@H]([C@@H](CC)C(=O)O)CC[C@@H]1C)[C@H]1OC2(C=C[C@@H](O)[C@]3(CC[C@@](C)([C@H]4CC[C@](O)(CC)[C@H](C)O4)O3)O2)[C@H](C)C[C@@H]1C (some centres undefined) | 0.12 | 0.47 | 0.55 | 0.954 |
| CC(=O)N[C@@H](Cc1c[nH]c2ccccc12)C(N)=O | 0.17 | 0.9 | 0.94 | 0.616 |
| CC(C)=CCC/C(C)=C/CO | 0.0614 | 0.75 | 0.87 | 1.04 |
| CN1CCN(CC(=O)N2c3ccccc3C(=O)Nc3cccnc32)CC1 | 0.185 | 0.92 | 0.88 | 0.717 |
| C[C@]12C=CC(=O)C=C1CCC1C2[C@@H](O)C[C@@]2(C)C1CC[C@]2(O)C(=O)CO (some centres undefined) | 0.446 | 0.95 | 0.94 | 0.62 |
| NC(Cn1ccc(=O)c(O)c1)C(=O)O (centres undefined) | 0.21 | 0.84 | 0.8 | 0.532 |
| CC(C)Cc1ccc(C(C)C(=O)O)cc1 (centres undefined) | 0.0389 | 0.97 | 0.92 | 1.07 |
| CC(=O)OCC(=O)[C@@]12OC(C)(C)O[C@@H]1C[C@H]1C3C[C@H](F)C4=CC(=O)C=CC4(C)[C@@]3(F)[C@@H](O)C[C@@]12C (some centres undefined) | 0.112 | 0.86 | 0.77 | 1.13 |
| NC(N)=O | 0.136 | 0.9 | 0.85 | 1.25 |
| Nc1ccc(S(=O)(=O)NC(=O)c2ccccc2)cc1 | 0.108 | 0.89 | 0.95 | 1.07 |
| CCN(CC)CCNC(=O)c1cc(Cl)c(N)cc1OC | 0.179 | 0.85 | 0.94 | 0.799 |
| Cc1ccccc1OCC(O)CO (centres undefined) | 0.0469 | 0.86 | 0.81 | 0.815 |
| C[N+](C)(C)CCCCCC[N+](C)(C)C | 0.297 | 0.93 | 0.87 | 0.659 |
| COC1=CC(C)[C@@H]2C[C@H]3OC(=O)C[C@H]4C(C)=C(OC)C(=O)C([C@@]34C)[C@@]2(C)C1=O (some centres undefined) | 0.236 | 0.84 | 0.96 | 1.09 |
| NC(N)=NC(N)=Nc1ccccc1 | 0.203 and 0.0964 | 0.86 and 0.92 | 0.9 and 0.89 | 0.843 and 0.891 |
| C#C[C@]1(O)CCC2C3CCC4=CC(=O)CC[C@@H]4C3CC[C@@]21C (some centres undefined) | 0.101 | 0.9 | 0.86 | 0.831 |
